Data taken from the supplement of paper PMC10849652.
The list shows a part of the results.

Sequences of proteins named here, by UniProt entry; tags and fusion partners are left off. A change or cut given only in a name is not applied to a line headed by its entry.
UniProt Q8IY57: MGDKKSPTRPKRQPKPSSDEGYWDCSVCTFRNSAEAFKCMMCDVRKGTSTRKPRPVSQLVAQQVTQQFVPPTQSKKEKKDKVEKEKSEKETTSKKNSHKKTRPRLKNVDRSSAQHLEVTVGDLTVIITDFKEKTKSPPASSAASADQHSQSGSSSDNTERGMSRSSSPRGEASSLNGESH
UniProt Q9Y548: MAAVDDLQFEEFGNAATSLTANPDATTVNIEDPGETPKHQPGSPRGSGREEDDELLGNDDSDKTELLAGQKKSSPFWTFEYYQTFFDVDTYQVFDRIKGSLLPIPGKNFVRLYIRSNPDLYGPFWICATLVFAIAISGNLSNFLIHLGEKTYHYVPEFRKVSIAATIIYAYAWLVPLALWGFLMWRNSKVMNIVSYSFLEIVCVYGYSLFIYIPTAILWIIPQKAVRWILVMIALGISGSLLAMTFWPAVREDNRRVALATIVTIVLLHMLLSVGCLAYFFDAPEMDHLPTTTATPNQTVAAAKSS
UniProt Q9Y5A9: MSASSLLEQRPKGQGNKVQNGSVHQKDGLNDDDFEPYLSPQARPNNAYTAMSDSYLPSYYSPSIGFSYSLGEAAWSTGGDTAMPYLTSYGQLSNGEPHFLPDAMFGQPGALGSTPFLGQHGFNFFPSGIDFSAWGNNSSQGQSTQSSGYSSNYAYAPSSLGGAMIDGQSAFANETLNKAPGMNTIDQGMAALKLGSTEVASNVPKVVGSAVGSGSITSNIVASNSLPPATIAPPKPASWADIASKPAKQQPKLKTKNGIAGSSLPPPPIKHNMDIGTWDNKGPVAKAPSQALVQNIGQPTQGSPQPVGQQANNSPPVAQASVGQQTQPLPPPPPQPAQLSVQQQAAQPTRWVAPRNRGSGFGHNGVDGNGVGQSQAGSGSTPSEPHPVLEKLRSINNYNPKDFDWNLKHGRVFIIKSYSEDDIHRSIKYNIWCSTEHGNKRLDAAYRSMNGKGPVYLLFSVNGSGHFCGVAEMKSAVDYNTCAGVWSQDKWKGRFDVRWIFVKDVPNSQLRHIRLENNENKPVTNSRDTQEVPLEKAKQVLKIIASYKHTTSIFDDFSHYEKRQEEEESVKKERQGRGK
UniProt Q8IZN3: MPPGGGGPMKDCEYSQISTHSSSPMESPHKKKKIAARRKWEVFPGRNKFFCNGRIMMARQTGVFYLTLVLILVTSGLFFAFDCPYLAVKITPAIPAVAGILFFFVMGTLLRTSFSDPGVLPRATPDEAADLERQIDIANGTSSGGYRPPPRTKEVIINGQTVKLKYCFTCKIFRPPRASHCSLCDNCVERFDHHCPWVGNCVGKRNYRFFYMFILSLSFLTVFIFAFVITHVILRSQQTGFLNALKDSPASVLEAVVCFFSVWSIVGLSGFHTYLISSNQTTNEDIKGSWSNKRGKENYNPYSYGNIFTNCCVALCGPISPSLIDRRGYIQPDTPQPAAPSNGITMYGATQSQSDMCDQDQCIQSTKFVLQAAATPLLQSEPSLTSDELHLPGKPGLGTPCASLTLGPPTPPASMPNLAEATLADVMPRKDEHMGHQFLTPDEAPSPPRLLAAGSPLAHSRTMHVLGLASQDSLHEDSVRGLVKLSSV
UniProt O43167: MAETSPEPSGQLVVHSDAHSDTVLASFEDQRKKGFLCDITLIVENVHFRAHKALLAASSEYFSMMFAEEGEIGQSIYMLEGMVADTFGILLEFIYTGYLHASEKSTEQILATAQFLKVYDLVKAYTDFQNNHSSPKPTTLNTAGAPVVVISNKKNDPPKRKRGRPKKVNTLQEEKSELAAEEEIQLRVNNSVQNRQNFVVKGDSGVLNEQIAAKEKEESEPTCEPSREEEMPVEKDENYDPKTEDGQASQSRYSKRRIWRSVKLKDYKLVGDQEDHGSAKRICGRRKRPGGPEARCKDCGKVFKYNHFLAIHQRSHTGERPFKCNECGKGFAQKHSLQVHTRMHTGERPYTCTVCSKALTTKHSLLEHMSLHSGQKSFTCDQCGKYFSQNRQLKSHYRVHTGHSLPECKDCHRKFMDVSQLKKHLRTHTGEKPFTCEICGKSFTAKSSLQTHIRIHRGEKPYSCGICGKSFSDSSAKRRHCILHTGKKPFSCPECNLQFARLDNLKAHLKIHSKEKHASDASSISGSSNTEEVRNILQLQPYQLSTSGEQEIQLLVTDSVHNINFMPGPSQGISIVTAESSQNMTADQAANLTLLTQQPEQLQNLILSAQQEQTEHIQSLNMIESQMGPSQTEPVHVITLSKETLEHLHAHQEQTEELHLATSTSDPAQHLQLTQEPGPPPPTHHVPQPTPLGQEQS
UniProt Q9NRH1: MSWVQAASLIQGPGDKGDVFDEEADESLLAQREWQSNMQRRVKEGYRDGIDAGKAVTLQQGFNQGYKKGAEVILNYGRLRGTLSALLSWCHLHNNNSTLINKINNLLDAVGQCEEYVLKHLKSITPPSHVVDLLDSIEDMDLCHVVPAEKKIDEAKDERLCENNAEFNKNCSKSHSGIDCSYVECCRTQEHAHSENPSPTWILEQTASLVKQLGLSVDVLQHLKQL
UniProt P37275: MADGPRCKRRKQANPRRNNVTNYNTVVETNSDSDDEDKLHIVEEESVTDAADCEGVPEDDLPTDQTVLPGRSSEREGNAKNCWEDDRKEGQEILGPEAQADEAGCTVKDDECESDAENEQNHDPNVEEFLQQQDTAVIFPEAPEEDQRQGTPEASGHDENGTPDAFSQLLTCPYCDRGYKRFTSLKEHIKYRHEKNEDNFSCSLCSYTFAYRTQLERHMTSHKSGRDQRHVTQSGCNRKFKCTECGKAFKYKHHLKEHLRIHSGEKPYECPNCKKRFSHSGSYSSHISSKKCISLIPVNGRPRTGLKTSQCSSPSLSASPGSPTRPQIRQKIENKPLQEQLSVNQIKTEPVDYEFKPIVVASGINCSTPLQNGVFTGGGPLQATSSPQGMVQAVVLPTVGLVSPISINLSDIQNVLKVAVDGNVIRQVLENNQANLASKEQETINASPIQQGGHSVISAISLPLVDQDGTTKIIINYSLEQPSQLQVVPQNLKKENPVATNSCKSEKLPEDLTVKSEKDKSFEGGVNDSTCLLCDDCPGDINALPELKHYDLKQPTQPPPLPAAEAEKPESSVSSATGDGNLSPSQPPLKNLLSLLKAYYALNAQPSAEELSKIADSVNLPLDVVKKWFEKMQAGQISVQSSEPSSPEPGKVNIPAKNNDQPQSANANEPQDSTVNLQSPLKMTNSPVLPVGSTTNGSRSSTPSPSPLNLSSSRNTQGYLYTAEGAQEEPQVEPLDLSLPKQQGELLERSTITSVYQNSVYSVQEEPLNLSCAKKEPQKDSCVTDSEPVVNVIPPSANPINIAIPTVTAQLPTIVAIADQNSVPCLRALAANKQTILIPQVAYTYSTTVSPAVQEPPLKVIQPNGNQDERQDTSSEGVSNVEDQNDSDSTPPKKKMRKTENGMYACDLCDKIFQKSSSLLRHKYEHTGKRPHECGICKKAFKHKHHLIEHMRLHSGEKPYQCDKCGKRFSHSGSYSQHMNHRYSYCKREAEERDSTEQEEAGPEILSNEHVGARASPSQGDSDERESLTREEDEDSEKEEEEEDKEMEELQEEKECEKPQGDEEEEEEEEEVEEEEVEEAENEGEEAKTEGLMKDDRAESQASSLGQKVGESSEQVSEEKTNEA
UniProt Q9BQ24: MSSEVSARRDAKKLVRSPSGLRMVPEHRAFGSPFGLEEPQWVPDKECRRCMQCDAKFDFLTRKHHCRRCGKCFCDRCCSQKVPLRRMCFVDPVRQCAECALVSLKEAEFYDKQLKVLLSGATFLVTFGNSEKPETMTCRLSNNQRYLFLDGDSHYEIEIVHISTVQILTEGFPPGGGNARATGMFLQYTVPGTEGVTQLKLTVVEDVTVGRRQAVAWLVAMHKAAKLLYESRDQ
UniProt P62258: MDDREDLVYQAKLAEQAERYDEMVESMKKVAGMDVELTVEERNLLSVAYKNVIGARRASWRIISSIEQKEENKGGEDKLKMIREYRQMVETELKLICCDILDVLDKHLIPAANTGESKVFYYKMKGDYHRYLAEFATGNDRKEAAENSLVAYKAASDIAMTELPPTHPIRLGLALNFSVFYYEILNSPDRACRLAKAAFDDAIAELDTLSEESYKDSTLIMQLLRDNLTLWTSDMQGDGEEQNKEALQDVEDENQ
UniProt O95365: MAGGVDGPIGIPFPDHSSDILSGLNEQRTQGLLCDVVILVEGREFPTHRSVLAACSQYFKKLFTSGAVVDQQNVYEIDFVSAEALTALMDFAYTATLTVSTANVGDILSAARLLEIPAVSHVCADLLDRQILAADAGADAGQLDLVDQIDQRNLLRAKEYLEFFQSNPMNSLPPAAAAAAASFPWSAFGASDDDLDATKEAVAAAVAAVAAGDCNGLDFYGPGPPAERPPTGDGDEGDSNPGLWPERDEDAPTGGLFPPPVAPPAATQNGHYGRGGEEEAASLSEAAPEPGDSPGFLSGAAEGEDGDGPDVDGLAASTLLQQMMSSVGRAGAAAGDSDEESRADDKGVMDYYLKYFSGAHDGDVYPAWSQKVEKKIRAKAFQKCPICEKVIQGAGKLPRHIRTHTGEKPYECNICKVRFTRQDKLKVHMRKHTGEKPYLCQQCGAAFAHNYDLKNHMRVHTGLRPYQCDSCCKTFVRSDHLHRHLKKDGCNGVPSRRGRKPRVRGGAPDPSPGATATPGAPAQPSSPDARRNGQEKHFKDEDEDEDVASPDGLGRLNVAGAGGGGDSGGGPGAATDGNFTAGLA
UniProt Q8N3Z6: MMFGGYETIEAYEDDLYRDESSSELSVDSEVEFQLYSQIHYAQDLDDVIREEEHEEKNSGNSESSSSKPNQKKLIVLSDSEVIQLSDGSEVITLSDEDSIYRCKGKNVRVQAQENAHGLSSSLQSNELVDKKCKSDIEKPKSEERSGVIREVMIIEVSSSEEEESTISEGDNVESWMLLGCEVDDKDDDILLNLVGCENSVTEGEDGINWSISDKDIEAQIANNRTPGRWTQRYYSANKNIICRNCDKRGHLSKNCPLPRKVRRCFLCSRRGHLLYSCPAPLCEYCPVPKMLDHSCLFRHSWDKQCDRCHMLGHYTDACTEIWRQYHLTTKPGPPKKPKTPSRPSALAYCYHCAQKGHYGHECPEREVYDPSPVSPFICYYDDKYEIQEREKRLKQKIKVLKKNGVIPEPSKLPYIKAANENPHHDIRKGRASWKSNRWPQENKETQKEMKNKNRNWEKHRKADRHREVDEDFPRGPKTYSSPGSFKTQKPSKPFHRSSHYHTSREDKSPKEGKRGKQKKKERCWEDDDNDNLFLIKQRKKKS
UniProt O43542: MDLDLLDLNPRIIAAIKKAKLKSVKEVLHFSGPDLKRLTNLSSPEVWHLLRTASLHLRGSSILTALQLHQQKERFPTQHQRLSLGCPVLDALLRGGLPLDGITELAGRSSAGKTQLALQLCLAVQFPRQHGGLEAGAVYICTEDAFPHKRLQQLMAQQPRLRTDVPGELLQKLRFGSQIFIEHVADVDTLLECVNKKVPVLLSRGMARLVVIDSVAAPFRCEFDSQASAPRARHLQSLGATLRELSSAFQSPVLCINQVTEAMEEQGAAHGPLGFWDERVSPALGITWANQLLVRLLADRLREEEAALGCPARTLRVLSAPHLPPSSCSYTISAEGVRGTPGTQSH
UniProt O43829: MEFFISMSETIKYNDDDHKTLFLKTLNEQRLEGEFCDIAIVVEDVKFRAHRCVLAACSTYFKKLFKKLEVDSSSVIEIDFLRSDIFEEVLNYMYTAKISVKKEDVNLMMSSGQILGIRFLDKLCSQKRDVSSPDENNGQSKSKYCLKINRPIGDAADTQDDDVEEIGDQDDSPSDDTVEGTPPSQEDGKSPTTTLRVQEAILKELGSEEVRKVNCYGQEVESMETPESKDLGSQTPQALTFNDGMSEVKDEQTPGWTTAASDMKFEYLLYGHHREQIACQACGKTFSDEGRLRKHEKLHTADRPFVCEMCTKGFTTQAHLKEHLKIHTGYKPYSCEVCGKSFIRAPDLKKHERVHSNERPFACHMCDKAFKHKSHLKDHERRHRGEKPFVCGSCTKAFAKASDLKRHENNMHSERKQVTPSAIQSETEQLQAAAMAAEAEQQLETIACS
UniProt Q5T4F4: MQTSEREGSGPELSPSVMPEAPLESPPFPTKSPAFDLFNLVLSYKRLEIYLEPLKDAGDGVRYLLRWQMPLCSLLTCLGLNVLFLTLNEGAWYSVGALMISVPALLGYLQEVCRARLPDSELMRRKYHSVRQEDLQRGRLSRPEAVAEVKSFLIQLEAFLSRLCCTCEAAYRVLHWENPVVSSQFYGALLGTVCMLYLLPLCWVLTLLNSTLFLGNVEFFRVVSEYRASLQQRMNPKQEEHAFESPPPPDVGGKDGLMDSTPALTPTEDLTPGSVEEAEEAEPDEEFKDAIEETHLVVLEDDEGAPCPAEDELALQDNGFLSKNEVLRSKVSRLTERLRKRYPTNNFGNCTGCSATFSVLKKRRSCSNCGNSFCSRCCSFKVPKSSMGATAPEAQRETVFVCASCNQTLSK

Tests used:
Assay in all cases: log2 fold change, soluble protein after heating vs DMSO (PISA); higher = thermal stabilisation; K562 lysate, 10 uM; active = over 0.2 and 3.5 SD of the protein, either way, in both replicates (recomputed)
dasatinib = compound: Cc1nc(Nc2ncc(C(=O)Nc3c(C)cccc3Cl)s2)cc(N2CCN(CCO)CC2)n1 [dasatinib]
Summary of the method: (§1)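 Thermal stability, expressed as log-two fold change relative to solvent controls, is given from duplicates. Crude K562 extract in PBS pH 7.4 with 1 mM MgCl2, at 1 mg/mL protein, was treated with 10 μM compound for 30 min and heated in aliquots for 3 min across 48°C-58°C. After pooling, adjustment to 0.5% NP-40 at 4°C and centrifugation at 21,000xg for 90 min, supernatant protein was measured by TMTpro 16plex LC-MS/MS with channel sums equalised.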

[1] = compound: Cn1cc(-c2ccc3c(c2)CCN3C(=O)Cc2cccc(C(F)(F)F)c2)c2c(N)ncnc21
Summary of the method: as §1

quisinostat = compound: Cn1cc(CNCC2CCN(c3ncc(C(=O)NO)cn3)CC2)c2ccccc21 [quisinostat]
Summary of the method: as §1

[2] = compound: NC(=O)Nc1cc(-c2cccc(F)c2)sc1C(=O)N[C@H]1CCCNC1
Summary of the method: as §1

[3] = compound: NC(=O)c1cnc(N[C@@H]2CCCC[C@@H]2N)nc1Nc1cccc(-n2nccn2)c1
Summary of the method: as §1

[4] = compound: NC1(c2ccc(-c3nc4ccn5c(=O)[nH]nc5c4cc3-c3ccccc3)cc2)CCC1
Summary of the method: as §1

[5] = compound: NCC(=O)Nc1ccc(-n2nc(C(F)(F)F)cc2-c2ccc3c(ccc4ccccc43)c2)cc1
Summary of the method: as §1

vorinostat = compound: O=C(CCCCCCC(=O)Nc1ccccc1)NO [vorinostat]
Summary of the method: as §1

silmitasertib = compound: O=C(O)c1ccc2c(c1)nc(Nc1cccc(Cl)c1)c1ccncc12 [silmitasertib]
Summary of the method: as §1

[6] = compound: O=C1NC(=O)C(c2cnc3ccccn23)=C1c1cn2c3c(cc(F)cc13)CN(C(=O)N1CCCCC1)CC2
Summary of the method: as §1

entospletinib = compound: c1cn2cc(-c3ccc4cn[nH]c4c3)nc(Nc3ccc(N4CCOCC4)cc3)c2n1 [entospletinib]
Summary of the method: as §1

nilotinib = compound: Cc1cn(-c2cc(NC(=O)c3ccc(C)c(Nc4nccc(-c5cccnc5)n4)c3)cc(C(F)(F)F)c2)cn1 [nilotinib]
Summary of the method: as §1

[7] = compound: Cc1nc(Nc2n[nH]c3c2CN(C(=O)N[C@H](CN(C)C)c2ccccc2)C3(C)C)c2sccc2n1
Summary of the method: as §1

[8] = compound: Cc1ncc(-c2ccnc(Nc3ccc(S(C)(=O)=O)cc3)n2)n1C(C)C
Summary of the method: as §1

tipifarnib = compound: Cn1cncc1[C@@](N)(c1ccc(Cl)cc1)c1ccc2c(c1)c(-c1cccc(Cl)c1)cc(=O)n2C [tipifarnib]
Summary of the method: as §1

Measured: log2 fold change

YAF2 isoform 5 (UniProt Q8IY57)
inactive: dasatinib 0.091 | [1] -0.129 | quisinostat 0.041 | [2] 0.05 | [3] -0.115 | [4] -0.15 | [5] 0.101 | vorinostat 0.123 | silmitasertib -0.113 | [6] -0.054 | entospletinib -0.031

ZCCHC4 (UniProt Q9H5U6)
inactive: nilotinib -0.024 | [7] -0.014 | dasatinib 0.115 | [8] -0.072 | [1] -0.091 | tipifarnib 0.064 | [5] -0.234 | entospletinib -0.175

YIPF1 (UniProt Q9Y548)
inactive: nilotinib 0.016 | [7] -0.026 | dasatinib -0.001 | [8] 0 | [1] 0.056 | quisinostat -0.021 | tipifarnib -0.006 | [2] 0.061 | [3] -0.015 | [6] 0.081

YTHDC1 (UniProt Q96MU7)
inactive: nilotinib -0.134 | [7] 0.207 | dasatinib 0.122 | [8] 0.077 | [1] 0.26 | quisinostat 0.038 | tipifarnib 0.021 | [2] 0.006 | [3] -0.071 | [5] -0.349 | [6] 0.041 | entospletinib 0.156

YTHDF2 (UniProt Q9Y5A9)
inactive: nilotinib -0.181 | [7] 0.008 | dasatinib 0 | [8] 0.025 | [1] 0.003 | quisinostat 0.035 | tipifarnib -0.303 | [2] 0.075 | [3] 0.017 | [4] 0.002 | [5] 0.05 | vorinostat -0.024 | silmitasertib -0.036 | [6] -0.16 | entospletinib -0.022

ZBTB11 (UniProt O95625)
inactive: nilotinib -0.045 | [7] 0.019 | [8] -0.034 | quisinostat -0.002 | tipifarnib -0.01 | [2] 0 | [3] 0.194 | [4] 0.142 | [5] -0.122 | vorinostat -0.1 | silmitasertib -0.015 | [6] 0.148

ZDHHC14 (UniProt Q8IZN3)
inactive: nilotinib -0.029 | [7] -0.072 | dasatinib -0.054 | [8] 0.061 | [1] 0.003 | quisinostat -0.014 | tipifarnib 0.029 | [2] 0.071 | [3] -0.072 | [5] 0.013 | [6] -0.094 | entospletinib -0.018

ZBTB24 (UniProt O43167)
inactive: nilotinib 0.032 | [7] -0.243 | dasatinib -0.038 | [8] 0.099 | [1] 0.014 | quisinostat 0.003 | tipifarnib -0.114 | [2] 0.004 | [3] -0.021 | [4] 0.032 | vorinostat -0.041 | silmitasertib -0.076 | [6] 0.017 | entospletinib 0.022

YAE1 (UniProt Q9NRH1)
inactive: nilotinib 0.01 | [7] 0.077 | dasatinib 0.056 | [8] 0.083 | [1] 0 | quisinostat -0.031 | tipifarnib 0.064 | [2] 0.029 | [4] 0.092 | [5] 0.036 | vorinostat -0.044 | silmitasertib -0.018 | [6] -0.015 | entospletinib 0.059

4 consecutive entries from above:
YTHDF2 (UniProt Q9Y5A9)
inactive: nilotinib -0.181 | [7] 0.008 | dasatinib 0 | [8] 0.025 | [1] 0.003 | quisinostat 0.035 | tipifarnib -0.303 | [2] 0.075 | [3] 0.017 | [4] 0.002 | [5] 0.05 | vorinostat -0.024 | silmitasertib -0.036 | [6] -0.16 | entospletinib -0.022

ZBTB11 (UniProt O95625)
inactive: nilotinib -0.045 | [7] 0.019 | [8] -0.034 | quisinostat -0.002 | tipifarnib -0.01 | [2] 0 | [3] 0.194 | [4] 0.142 | [5] -0.122 | vorinostat -0.1 | silmitasertib -0.015 | [6] 0.148

ZDHHC14 (UniProt Q8IZN3)
inactive: nilotinib -0.029 | [7] -0.072 | dasatinib -0.054 | [8] 0.061 | [1] 0.003 | quisinostat -0.014 | tipifarnib 0.029 | [2] 0.071 | [3] -0.072 | [5] 0.013 | [6] -0.094 | entospletinib -0.018

ZBTB24 (UniProt O43167)
inactive: nilotinib 0.032 | [7] -0.243 | dasatinib -0.038 | [8] 0.099 | [1] 0.014 | quisinostat 0.003 | tipifarnib -0.114 | [2] 0.004 | [3] -0.021 | [4] 0.032 | vorinostat -0.041 | silmitasertib -0.076 | [6] 0.017 | entospletinib 0.022

The list continues.

YEATS2 (UniProt Q9ULM3)
inactive: nilotinib -0.065 | [7] 0.169 | [8] 0 | quisinostat -0.06 | tipifarnib 0.015 | [2] 0.088 | [3] -0.06 | [4] -0.041 | [5] 0.043 | vorinostat -0.278 | silmitasertib -0.062 | [6] 0.005 | entospletinib -0.066

ZEB1 isoform 2 (UniProt P37275)
inactive: dasatinib -0.263 | [1] 0.047 | quisinostat -0.346 | [2] 0.011 | [3] -0.092 | [4] 0.009 | [5] -0.181 | vorinostat 0.085 | silmitasertib 0.037 | [6] -0.031

ZFYVE21 isoform 2 (UniProt Q9BQ24)
inactive: nilotinib -0.031 | [7] 0.027 | dasatinib -0.054 | [8] 0.024 | [1] -0.083 | quisinostat 0.002 | tipifarnib 0.023 | [2] -0.109 | [3] 0.09 | [5] -0.05 | [6] 0.047 | entospletinib -0.04

YWHAE (UniProt P62258)
inactive: nilotinib 0.008 | [7] -0.011 | dasatinib 0.031 | [8] -0.023 | [1] 0 | quisinostat 0.003 | tipifarnib 0 | [2] -0.01 | [3] 0.005 | [4] 0.005 | [5] 0.018 | vorinostat 0.112 | silmitasertib 0.003 | [6] -0.018 | entospletinib -0.008

ZBTB7A (UniProt O95365)
inactive: dasatinib -0.035 | [1] 0.055 | quisinostat 0.056 | [2] -0.034 | [3] 0.115 | [4] 0.018 | [5] -0.078 | vorinostat 0.033 | silmitasertib -0.026 | [6] 0.238 | entospletinib -0.057

ZC3H12A (UniProt Q5D1E8)
inactive: nilotinib -0.364 | [7] 0.363 | dasatinib 0.075 | [8] 0.027 | [1] -0.025 | quisinostat -0.119 | tipifarnib 0.039 | [2] 0.125 | [4] 0.056 | vorinostat -0.107 | silmitasertib -0.048 | [6] 0.069 | entospletinib -0.058

ZCCHC7 (UniProt Q8N3Z6)
inactive: nilotinib -0.031 | [7] -0.108 | dasatinib -0.042 | [8] 0.03 | [1] 0.028 | quisinostat 0.013 | tipifarnib -0.042 | [2] -0.051 | [6] -0.118

XRCC3 (UniProt O43542)
inactive: nilotinib 0.019 | [7] 0.002 | dasatinib -0.047 | [8] 0.035 | [1] 0.056 | quisinostat -0.017 | tipifarnib -0.028 | [2] 0.016 | [4] -0.026 | [5] 0.01 | vorinostat -0.155 | silmitasertib 0.02 | [6] 0.013

ZBTB14 (UniProt O43829)
inactive: nilotinib 0.024 | [7] 0.049 | dasatinib 0.055 | [8] -0.111 | [1] 0.112 | quisinostat 0.038 | tipifarnib 0.211 | [2] 0.028 | [3] 0.064 | [4] 0.013 | vorinostat 0.257 | silmitasertib 0.007 | [6] -0.213

ZFYVE27 isoform 2 (UniProt Q5T4F4)
inactive: dasatinib 0.03 | [1] -0.067 | quisinostat 0.013 | [2] -0.075 | [3] -0.029 | [4] -0.003 | [5] -0.04 | vorinostat -0.209 | silmitasertib 0.028 | [6] -0.096 | entospletinib 0.149

ZC3H12C isoform 2 (UniProt Q9C0D7)
inactive: dasatinib -0.21 | [1] 0.075 | quisinostat 0.052 | [2] 0.115 | [3] 0.054 | [4] 0.028 | vorinostat -0.368 | silmitasertib -0.035 | [6] 0.06
